Results from article PMC1184076.
These are yes or no findings as the source states them, for the method shown. For some assays here: Binding seen in cells or lysates may run through a third protein. Some binding calls cover weakened binding; strength is not graded here. Each block holds one substance with its values, some of them ahead of it.

Protein sequences, listed by entry. Tags and fused reporters are not part of them.
UniProt P25963: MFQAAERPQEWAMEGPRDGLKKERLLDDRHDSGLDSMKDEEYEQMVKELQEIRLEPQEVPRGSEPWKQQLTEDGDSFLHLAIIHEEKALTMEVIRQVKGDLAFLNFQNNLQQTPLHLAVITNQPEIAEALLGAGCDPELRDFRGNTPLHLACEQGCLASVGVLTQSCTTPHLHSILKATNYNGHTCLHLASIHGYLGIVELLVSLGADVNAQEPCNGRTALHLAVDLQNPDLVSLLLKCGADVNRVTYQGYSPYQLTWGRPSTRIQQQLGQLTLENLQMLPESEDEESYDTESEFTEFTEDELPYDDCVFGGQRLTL

Columns and labels:
[1] = target: GST-p53, purified, bacterially produced (UniProt P04637); experiment: condition: only p53 precipitated with monoclonal antibody Ab3 directed at amino acids 212–217 of p53; co-IP; purified GST-p53 incubated with purified His-IκBα in IP buffer; p53 precipitated with monoclonal antibody Ab3 (amino acids 212-217 in the DNA binding core of p53) and protein A/G beads; Western blot for IκBα; both purified
[2] = target: endogenous wild-type p53 of A2085 melanoma cells (human (endogenous in A2085 melanoma cells)) (UniProt P04637); experiment: co-IP; extracts of A2085 cells (stably transfected with HA-ΔA5-IκBα or vector) irradiated 30" with UVB and harvested 4 hrs later; immunoprecipitation with anti-p53 Ab2 or polyclonal anti-HA; Western blot with anti-IκBα (C-terminus) or anti-p53 Ab3
[3] = target: GST-p53, purified, bacterially produced (UniProt P04637); experiment: pull-down; data not shown: COS cell lysate with wild-type IκBα co-precipitated with GST-p53; only the target purified
[4] = target: wild-type p53 synthesized in rabbit reticulocyte lysate (UniProt P04637); experiment: co-IP; unpublished observations: reticulocyte lysate p53 and IκBα alleles precipitated with the p53 antibody Ab2
[5] = target: wild-type IκBα synthesized in rabbit reticulocyte lysate (UniProt P25963); experiment: co-IP; p53 and IκBα alleles separately synthesized in rabbit reticulocyte lysate, 35S-labelled; 10 μl of lysates in 100 μl IP buffer, 2 hours at 4°C; precipitated with rabbit polyclonal antiserum to the C-terminus of IκBα and protein G plus/A beads; autoradiography, gel densitometry

- binding [3]: binds
Substance: wild-type IκBα expressed in COS cells (from UniProt P25963 1-317)

- binding [4]: binds
Substance: wild-type IκBα synthesized in rabbit reticulocyte lysate (from UniProt P25963 1-317)

More lines, now with the values behind:

Substance: 6xHis-tagged IκBα (His-IκBα), purified, bacterially produced (from UniProt P25963 1-317)
- binding [1]: no binding

Substance: endogenous wild-type IκBα of A2085 melanoma cells (from UniProt P25963 1-317)
- binding [2]: binds

Substance: wild-type p53 synthesized in rabbit reticulocyte lysate (from UniProt P04637 1-393)
- binding [5]: binds
